The text below walks through data of article PMC12574955, “The Ync13–Rga7–Rng10 complex selectively coordinates secretory vesicle trafficking and secondary septum formation during cytokinesis” (PLOS Biology, 2025).

Protein sequences, listed by entry. Tags and fused reporters are not part of them.
UniProt Q10287: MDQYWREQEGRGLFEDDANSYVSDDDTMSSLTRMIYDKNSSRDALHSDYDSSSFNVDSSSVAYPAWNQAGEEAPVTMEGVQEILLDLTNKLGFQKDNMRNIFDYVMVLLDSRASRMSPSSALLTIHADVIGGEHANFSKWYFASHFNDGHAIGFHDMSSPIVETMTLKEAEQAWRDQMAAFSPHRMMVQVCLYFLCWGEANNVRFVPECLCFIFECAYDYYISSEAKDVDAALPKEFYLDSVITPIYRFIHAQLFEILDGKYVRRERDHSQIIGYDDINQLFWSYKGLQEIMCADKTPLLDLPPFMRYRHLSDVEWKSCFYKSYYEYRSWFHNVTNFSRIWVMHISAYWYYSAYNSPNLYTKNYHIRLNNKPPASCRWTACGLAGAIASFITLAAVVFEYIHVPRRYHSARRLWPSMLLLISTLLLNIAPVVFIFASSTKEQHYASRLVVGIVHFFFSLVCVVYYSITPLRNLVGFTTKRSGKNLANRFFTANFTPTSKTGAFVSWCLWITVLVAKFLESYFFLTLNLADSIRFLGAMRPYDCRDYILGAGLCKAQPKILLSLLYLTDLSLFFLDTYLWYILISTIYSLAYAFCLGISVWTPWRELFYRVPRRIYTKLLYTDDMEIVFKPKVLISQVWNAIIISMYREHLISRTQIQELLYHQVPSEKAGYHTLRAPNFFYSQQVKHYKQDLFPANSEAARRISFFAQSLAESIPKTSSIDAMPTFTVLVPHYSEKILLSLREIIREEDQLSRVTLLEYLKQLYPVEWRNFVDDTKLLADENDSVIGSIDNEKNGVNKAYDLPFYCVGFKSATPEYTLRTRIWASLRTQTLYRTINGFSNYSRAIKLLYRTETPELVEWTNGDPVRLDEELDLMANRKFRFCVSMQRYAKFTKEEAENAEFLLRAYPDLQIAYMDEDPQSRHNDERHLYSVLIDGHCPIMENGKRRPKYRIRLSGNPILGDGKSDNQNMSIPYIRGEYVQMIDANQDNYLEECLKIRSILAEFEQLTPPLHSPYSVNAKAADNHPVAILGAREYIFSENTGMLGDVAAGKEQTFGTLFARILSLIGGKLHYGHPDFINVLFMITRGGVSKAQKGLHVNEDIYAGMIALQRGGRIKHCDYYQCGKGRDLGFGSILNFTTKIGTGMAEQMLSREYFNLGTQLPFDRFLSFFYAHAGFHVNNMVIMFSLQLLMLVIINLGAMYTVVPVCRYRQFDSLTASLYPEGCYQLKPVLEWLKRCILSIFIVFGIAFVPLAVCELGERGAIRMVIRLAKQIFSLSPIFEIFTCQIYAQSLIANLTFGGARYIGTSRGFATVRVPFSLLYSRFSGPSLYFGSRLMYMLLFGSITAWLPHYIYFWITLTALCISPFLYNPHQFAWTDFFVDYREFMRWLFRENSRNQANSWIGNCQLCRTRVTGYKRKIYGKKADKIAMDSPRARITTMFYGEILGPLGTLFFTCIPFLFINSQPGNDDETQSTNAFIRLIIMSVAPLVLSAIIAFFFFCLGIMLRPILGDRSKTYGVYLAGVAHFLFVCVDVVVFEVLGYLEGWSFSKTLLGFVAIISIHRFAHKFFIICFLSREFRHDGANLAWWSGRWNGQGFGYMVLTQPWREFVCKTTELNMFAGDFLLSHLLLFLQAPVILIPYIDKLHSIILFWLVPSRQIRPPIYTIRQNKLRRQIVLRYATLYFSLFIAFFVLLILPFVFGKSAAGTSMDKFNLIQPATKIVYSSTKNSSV

Results are given in words; binding and its absence hold for the method and conditions named. Some entries that bind do so weakly or less than the wild type. Sequences can lack the tags named with a protein.

What all share (assay): ectopic mistargeting to mitochondria (Tom20-GBP); protein 1 tagged with mEGFP or mECitrine tethered to mitochondria by Tom20-GBP in live S. pombe cells; recruitment of tdTomato/mCherry/RFP-tagged protein 2 seen by confocal microscopy; Ync13 with Sec1 also tested in rng10Δ cells
In assay [1] the target is T1, Rng10-mEGFP (Schizosaccharomyces pombe) (UniProt Q9P6L9).
T1 sequence: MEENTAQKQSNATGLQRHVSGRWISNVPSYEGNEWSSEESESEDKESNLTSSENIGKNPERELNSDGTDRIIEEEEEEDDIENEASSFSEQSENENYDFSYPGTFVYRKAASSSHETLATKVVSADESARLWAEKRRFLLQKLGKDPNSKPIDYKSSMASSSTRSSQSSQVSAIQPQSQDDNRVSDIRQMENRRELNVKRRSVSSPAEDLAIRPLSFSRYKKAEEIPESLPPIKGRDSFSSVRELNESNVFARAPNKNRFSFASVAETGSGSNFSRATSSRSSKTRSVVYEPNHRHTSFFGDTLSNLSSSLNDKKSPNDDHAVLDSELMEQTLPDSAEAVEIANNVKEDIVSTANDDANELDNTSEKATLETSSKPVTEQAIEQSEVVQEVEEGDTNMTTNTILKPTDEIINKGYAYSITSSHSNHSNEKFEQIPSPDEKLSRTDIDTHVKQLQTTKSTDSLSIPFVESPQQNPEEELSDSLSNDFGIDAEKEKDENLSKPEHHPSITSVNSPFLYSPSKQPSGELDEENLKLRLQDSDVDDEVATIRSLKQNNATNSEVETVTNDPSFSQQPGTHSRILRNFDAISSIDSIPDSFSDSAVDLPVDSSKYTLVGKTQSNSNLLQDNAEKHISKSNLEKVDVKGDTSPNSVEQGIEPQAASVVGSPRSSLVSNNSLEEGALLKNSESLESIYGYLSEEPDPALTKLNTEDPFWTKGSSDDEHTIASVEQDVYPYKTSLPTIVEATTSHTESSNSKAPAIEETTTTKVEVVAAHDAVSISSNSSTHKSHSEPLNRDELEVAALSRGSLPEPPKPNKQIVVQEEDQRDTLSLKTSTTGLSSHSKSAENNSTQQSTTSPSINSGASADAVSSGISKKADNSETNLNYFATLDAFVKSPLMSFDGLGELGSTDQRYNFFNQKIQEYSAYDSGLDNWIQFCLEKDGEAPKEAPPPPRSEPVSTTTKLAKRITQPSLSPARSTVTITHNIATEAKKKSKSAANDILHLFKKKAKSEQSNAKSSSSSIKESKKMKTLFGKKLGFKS

In assay [2] the target is T2, Rga7-mEGFP (Schizosaccharomyces pombe) (UniProt O94466).
T2 sequence: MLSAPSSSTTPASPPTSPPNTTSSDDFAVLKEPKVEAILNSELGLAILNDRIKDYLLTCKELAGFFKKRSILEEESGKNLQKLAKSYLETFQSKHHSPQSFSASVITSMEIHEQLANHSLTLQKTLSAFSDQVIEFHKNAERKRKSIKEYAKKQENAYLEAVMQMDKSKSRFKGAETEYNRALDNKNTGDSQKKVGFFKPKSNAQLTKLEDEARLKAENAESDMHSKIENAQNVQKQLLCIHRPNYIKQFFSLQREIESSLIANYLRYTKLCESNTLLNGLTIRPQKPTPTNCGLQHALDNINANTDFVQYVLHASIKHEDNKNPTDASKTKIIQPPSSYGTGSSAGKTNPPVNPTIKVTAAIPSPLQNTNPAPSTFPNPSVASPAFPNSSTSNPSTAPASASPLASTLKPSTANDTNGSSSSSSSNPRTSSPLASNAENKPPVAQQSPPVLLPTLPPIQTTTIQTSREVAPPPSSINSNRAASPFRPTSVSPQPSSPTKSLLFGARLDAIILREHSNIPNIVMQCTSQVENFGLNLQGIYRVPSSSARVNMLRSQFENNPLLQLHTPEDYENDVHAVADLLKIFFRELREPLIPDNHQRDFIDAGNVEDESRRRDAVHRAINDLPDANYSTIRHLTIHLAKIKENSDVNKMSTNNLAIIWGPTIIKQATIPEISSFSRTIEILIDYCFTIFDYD

The target in assay [3] is T3, 3nmt1-mECitrine-Ync13 (Schizosaccharomyces pombe) (UniProt O13683).
T3 sequence: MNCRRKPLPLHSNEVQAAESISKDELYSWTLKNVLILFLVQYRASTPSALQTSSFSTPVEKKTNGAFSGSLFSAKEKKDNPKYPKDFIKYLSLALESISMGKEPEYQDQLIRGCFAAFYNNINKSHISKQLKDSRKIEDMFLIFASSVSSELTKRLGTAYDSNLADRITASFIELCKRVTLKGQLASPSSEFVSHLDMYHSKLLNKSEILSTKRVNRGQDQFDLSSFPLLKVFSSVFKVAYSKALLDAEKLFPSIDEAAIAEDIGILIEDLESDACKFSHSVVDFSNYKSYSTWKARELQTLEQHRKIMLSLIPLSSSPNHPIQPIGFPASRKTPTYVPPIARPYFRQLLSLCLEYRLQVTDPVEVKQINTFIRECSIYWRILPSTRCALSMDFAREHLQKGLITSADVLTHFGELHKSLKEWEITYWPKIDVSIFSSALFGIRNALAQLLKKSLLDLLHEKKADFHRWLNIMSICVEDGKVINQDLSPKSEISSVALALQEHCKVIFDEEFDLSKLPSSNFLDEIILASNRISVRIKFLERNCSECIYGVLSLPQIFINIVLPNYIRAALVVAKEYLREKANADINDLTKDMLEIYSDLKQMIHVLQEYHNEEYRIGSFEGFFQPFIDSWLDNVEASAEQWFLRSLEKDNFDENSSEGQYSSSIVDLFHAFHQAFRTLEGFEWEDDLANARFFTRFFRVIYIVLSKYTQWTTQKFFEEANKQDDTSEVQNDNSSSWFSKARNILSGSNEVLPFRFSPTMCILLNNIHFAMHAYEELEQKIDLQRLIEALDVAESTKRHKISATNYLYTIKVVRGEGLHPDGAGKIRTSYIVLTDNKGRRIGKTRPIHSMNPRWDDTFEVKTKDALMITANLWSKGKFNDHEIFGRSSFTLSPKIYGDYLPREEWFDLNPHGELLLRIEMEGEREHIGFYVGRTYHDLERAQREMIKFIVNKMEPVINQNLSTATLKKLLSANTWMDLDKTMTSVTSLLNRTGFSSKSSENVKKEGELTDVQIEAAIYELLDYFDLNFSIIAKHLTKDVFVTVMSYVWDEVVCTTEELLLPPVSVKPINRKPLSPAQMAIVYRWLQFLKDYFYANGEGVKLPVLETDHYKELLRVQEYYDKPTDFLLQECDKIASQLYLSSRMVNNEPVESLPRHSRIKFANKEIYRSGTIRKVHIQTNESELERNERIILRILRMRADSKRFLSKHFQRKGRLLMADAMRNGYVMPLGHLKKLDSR

Consider “tdTomato-Bgs1 (from UniProt Q10287 1-1729) (enzyme)”, for which the binding result in assay [1] and in assay [2] was “no binding” in each case.

B1: Fim1-mCherry (protein, UniProt O59945 1-614)
chain: MLALKLQKKYPELTNEEILTLTDQFNKLDVDGKGYLDQPTTIKAFEDSKKGSYDEVREAIREVNVDSSGRVEPEDFVGIFNVLKKGVEGTEVKKGRITIKGSSSSVSHTINEEERREFIKHINSVLAGDPDVGSRVPINTETFEFFDQCKDGLILSKLINDSVPDTIDERVLNKQRNNKPLDNFKCIENNNVVINSAKAMGGISITNIGAGDILEGREHLILGLVWQIIRRGLLGKIDITLHPELYRLLEEDETLDQFLRLPPEKILLRWFNYHLKAANWPRTVSNFSKDVSDGENYTVLLNQLAPELCSRAPLQTTDVLQRAEQVLQNAEKLDCRKYLTPTAMVAGNPKLNLAFVAHLFNTHPGLEPLNEEEKPEIEPFDAEGEREARVFTLWLNSLDVTPSIHDFFNNLRDGLILLQAYDKITPNTVNWKKVNKAPASGDEMMRFKAVENCNYAVDLGKNQGFSLVGIQGADITDGSRTLTLALVWQMMRMNITKTLHSLSRGGKTLSDSDMVAWANSMAAKGGKGSQIRSFRDPSISTGVFVLDVLHGIKSEYVDYNLVTDGSTEELAIQNARLAISIARKLGAVIFILPEDIVAVRPRLVLHFIGSLMAV
On to B1, for which, in assay [3], the binding entry is reported as “no binding”.

B2: Sec1-tdTomato (protein, UniProt O94590 1-693)
chain: MTLLELQKELFLSKINSVECATKWKVLIVDTKTADIINHFITIHSLLEEKIAAVEILENPRTPNSSFEALYILHSEEKLVDCILKDEEYDKRYPGIHIVFLDMVKEPLINKLRTSRIASKIRTVQVAYLDFTSLESRYFQVHDSFSGLRLYHPSNAAIIRQELSKVAHGIFSVCVSLGISPNIRCYYPKNAPHASKTMSFILANQLSEIVEEYCSKHPGYHEAASKSTCLIVDRSLDTAAPFLHEFTYQAMIHDLLPIKNEQYPYEILGPQGTEKRTGKLDDDDLVYTTIRHMHMRDAIEKLMKDFNQFCIDNTLFLDKERATSLNDMRSMLAGLSDFQELRDQYSLHLTMAQECMNIFEKQQLNLIGAIEQDLSTGSNVEGKVPRSVLSELLPLLDEGNAEESTKIRLLLLYIIYRDGIILQDLFRLFRHSNLSTSREQIFQNLEQLGTRVIKNLTDQSSKRKEVANSLPAGEDVYELSRYVPTLKVVLENLIQDKLDPELFPYVRNTTPQTEVSMEQTSLRSSRPSWTRSRSMASKLPREKMLVFVAGGTTFSELRTCYELSDKYNKDIYIGSTVCYSPNEWLDFFSKFQQPREALKFPEDKPRHIPCLEARPSPNRIQEQPNIDVPSTRYENTSSSDAVSIHKDEKKSKGKSHKLGKLMMSSKKDKDKSKEKVPTYGTSDKKKKKRFGVF
For the molecule B2, the binding entry in assay [3] is “binds”.

B3: Smi1-tdTomato (protein, UniProt O14362 1-504)
chain: MSKNSFSSMANSVTSFFQSLTTPNRHADPSFRPSRREKQSRLPTPLQSVAASAYSGVNASQTGLLNDSRANSVTNLPNSSNTSQVGLNNISPAPVGYVPGSKTNELANNSMEMQEISPNGSASLPPPVSESWRRIDRWAEENYYELYCQLCYGATVADVDSLEYELECTLPRDVRESLYIHDGQDRGGQPTGILFGVTLLDIEEIEEESELWRRVAQSYAEATLAGKIDQAVASRQASFPPGAVQCVYAHPGWIPLAKDFVGNNIAIDLAPGPAGQWGQVILFGRDQDTKYVVARSWADFLAIVAYDMENGKWLVDEDDNSLRLIYGPPREQWSYLDILKYRARKAERRKFKKRDGKRTTRPIPKSIAKEDVTNSANSTAPSTGTTVLDDGLDNNYEDIPLYGPSKDEELIKKEELEADTDLGLINTSEINQPANLPDEPTAETSNPVSATTVEAVTTTADNKDEEKNDHVTEDVSQNSTIAEASSLQAQEEEKEIETTSVKQE
As to B3, in assay [2], the binding result is “binds”.

B4: Clc1-mCherry (protein, UniProt Q9USP6 1-229)
chain: MSQFPALEDFDDGLVTAPVDDSKNNTDFLEREKLALGEDAGQFETPEDKDALLNFENDSEAEQTRFEQNFPPIDAEMQASGTFSAPKAPYMGQAEVHPPEDESGDPEPVRKWKEDQMKRIQERDESSKKLRESNIEKARKAIDDFYENFNDKRDKVIAKSRKEQEKLLEENESKSTGTTSWERILKLIDLSDKPEAHGRSTERFRELLISLAKDSNAPGAAGTTVSSSS
For the molecule B4, the binding entry in assay [3] was “no binding”.

B5: Rga7-mCherry (protein, UniProt O94466 1-695)
chain: MLSAPSSSTTPASPPTSPPNTTSSDDFAVLKEPKVEAILNSELGLAILNDRIKDYLLTCKELAGFFKKRSILEEESGKNLQKLAKSYLETFQSKHHSPQSFSASVITSMEIHEQLANHSLTLQKTLSAFSDQVIEFHKNAERKRKSIKEYAKKQENAYLEAVMQMDKSKSRFKGAETEYNRALDNKNTGDSQKKVGFFKPKSNAQLTKLEDEARLKAENAESDMHSKIENAQNVQKQLLCIHRPNYIKQFFSLQREIESSLIANYLRYTKLCESNTLLNGLTIRPQKPTPTNCGLQHALDNINANTDFVQYVLHASIKHEDNKNPTDASKTKIIQPPSSYGTGSSAGKTNPPVNPTIKVTAAIPSPLQNTNPAPSTFPNPSVASPAFPNSSTSNPSTAPASASPLASTLKPSTANDTNGSSSSSSSNPRTSSPLASNAENKPPVAQQSPPVLLPTLPPIQTTTIQTSREVAPPPSSINSNRAASPFRPTSVSPQPSSPTKSLLFGARLDAIILREHSNIPNIVMQCTSQVENFGLNLQGIYRVPSSSARVNMLRSQFENNPLLQLHTPEDYENDVHAVADLLKIFFRELREPLIPDNHQRDFIDAGNVEDESRRRDAVHRAINDLPDANYSTIRHLTIHLAKIKENSDVNKMSTNNLAIIWGPTIIKQATIPEISSFSRTIEILIDYCFTIFDYD
With B5, the binding result in assay [3] is “binds”.
